Source: patent US20250060376A1
Results are given in words; binding and its absence hold for the method and conditions named. Some entries that bind do so weakly or less than the wild type.

Protein sequences, listed by entry. Tags and fused reporters are not part of them. Residues count along the entry.
UniProt P13020, residues 26-780: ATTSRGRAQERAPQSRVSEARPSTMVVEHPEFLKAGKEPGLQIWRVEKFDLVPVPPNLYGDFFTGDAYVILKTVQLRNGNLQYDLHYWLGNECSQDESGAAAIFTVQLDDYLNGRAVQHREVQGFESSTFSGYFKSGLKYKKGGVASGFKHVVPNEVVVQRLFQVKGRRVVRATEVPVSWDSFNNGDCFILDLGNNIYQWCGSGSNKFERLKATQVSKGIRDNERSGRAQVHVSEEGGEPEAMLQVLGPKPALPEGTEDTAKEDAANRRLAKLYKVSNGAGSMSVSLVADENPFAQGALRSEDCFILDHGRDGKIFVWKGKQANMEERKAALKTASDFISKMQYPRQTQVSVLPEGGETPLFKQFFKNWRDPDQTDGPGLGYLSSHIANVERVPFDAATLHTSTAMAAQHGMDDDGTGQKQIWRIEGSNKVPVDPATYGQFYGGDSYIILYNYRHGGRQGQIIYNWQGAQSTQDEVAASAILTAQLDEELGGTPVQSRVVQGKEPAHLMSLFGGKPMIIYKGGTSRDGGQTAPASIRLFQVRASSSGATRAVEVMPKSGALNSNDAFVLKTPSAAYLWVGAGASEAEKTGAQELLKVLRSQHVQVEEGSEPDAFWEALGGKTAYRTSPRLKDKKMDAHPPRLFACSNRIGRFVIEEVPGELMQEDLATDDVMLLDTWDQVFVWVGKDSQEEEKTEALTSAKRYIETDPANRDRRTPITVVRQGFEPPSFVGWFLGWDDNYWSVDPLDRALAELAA

Biological target: gelsolin (mouse (hippocampus of DIR-KI mice)) (UniProt P13020)
Assay: PLA assay in hippocampus (FIG. 20D)

B1: DNA damage-inducible transcript 4-like (DDIT4L) intron retention spliced product (DIR) protein (protein)
chain: MVATGSLSSKNPASISELLDCGYHPESLLSGECPRCPPFSPPKVGASGSIGWAGFRLPPLPLCRRCHKIHLRRLLSKFSNIFSP
For B1, the binding was “binds”.
